Data published in patent EP0164635A2, “Imidazothiazolemethylene-acetohydrazide derivatives, preparation thereof and pharmaceutical composition having diuretic activity” (MEDIOLANUM FARMACEUTICI s.r.l., priority 1984, dated 1985).

Legend:
rat = test: Excreted urinary electrolytes after oral administration, with a second water load after 0-3 h; assay type: in vivo; settings: 10 mg/kg
Protocol: The compounds were administered by the oral route, under the same conditions as described in the previous test, but the animals, after the O-3 hours interval, were treated with further 25 ml/kg of distilled water, by intubation.

in vivo = settings: rat, po

NS(=O)(=O)c1cc(C(=O)O)c(NCc2ccco2)cc1Cl [Furosemide, furosemide, reference compound]
EXCRETED URINARY ELECTROLYTES WITH RESPECT TO BODY WEIGHT, Cl^- (rat; 0-3 h): 1.59 mEq/kg
EXCRETED URINARY ELECTROLYTES WITH RESPECT TO BODY WEIGHT, Cl^- (rat; 0-6 h): 1.59 mEq/kg
EXCRETED URINARY ELECTROLYTES WITH RESPECT TO BODY WEIGHT, Cl^- (rat; 3-6 h): 0.0 mEq/kg
LD50 (in vivo): 2600 mg/kg
